Experimental data taken from PubChem BioAssay AID504466 (National Center for Advancing Translational Sciences (NCATS), 2011).
Screen size: about 330,000 compounds; about 4,200 (1.3%) were called active. Roughly 6% stayed inconclusive and do not appear here. The call rests on the fitted dose curve; in most records, active means well fitted activation curve with a large enough effect; inconclusive means small, poorly fitted or top-dose-only effect; inactive means no such curve, though single readings can be large or run the other way. This is a selection; strong and weak results do not stand in their true shares. Where no call is shown, the source filed none.
Potency means the concentration at half of the fitted maximal effect.

Assay: qHTS screen for small molecules that induce genotoxicity in human embryonic kidney (HEK293T) cells expressing luciferase-tagged ELG1; further: nearly all actives have a fitted effect of over 60% in size; on activity change, positive = activation: % of control where 0% means no effect
Conditions: HEK293T ELG1-luciferase reporter, luminescence, 16 h; activity change, positive = activation: at 46 µM (top of the series)
Source text: NIH Molecular Libraries Probe Production Network [MLPCN] NIH Chemical Genomics Center [NCGC] MLPCN Grant: 1 R03 MH092164-01 Assay Provider: Kyungjae Myung, NHGRI, NIH Keywords: MLPCN, qHTS, NCGC, genotoxicity, cancer Assay Overview: Cancer cells divide rapidly compared to normal cells in the body. During cell division, cancer cells need to duplicate their genome by DNA replication. The failure of genome duplication leads to cancer cells' death. Therefore, inhibitors of DNA replication could specifically kill cancer cells. Based on this concept, many chemotherapeutic agents were developed and have been used to treat cancer patients. However, there are a limited number of agents available in the clinical setting, and some of those that do exist have low efficacy and severe side effects. Therefore, if we can find the compounds that effectively block DNA replication either by directly damaging DNA or by inhibiting other cellular mechanisms, the options for cancer treatment will be broadened. With this in mind, we developed a quantitative high-throughput ELG1-luciferase reporter gene assay. Since the level of human ELG1 protein is enhanced in response to genetic stresses, increases in luciferase activity can be used to identify compounds that cause genetic stress.
Assay Protocol Summary: For genotoxicity screening, 2,000 cells in 5 uL/well were dispensed into white, solid-bottom 1536-well plates using a solenoid-based dispenser. Following transfer of 23 nL compound or DMSO vehicle by a pin tool, the plates were incubated 16 hr at 37 °C and 5% CO2. 5 ul ONE-Glo (Promega) was then added to each plate and following a 30 min incubation at room temperature, luciferase activity was quantified on a ViewLux CCD-based plate reader.
Work on `O=C(NC1CCCCC1)c1cccc(S(=O)(=O)N2CCCCC2)c1` yielded an activity change, positive = activation of 9.3%.
`COC(=O)c1cc2n(n1)CCN(Cc1ccc(C)cc1)C2=O` gave an activity change, positive = activation of -0.579%.
In the case of `COC(=O)Cc1ccc(NC(=O)c2ccc(Br)o2)cc1`, the Potency was active: 18.4 µM.
`CS(=O)(=O)n1nc(-c2ccccc2)nc1NCc1ccco1` showed an activity change, positive = activation of 9.74%.
With `Cc1ccc(S(=O)(=O)n2nccc2-c2c(-c3ccc(Cl)cc3)noc2C)cc1` the “activity change, positive = activation” value was inactive: -24.4%.
Work on `S=c1[nH]nc(-c2ccco2)n1Cc1ccccc1` yielded an activity change, positive = activation of 38%.
Compound `COC(=O)c1ccc(C(=O)OC)c(NC(=O)COC(=O)CCOc2ccc(C)cc2)c1` has an activity change, positive = activation of 15.7%.
`Cn1c(=O)c2c(ncn2CCCC(=N)N2CCOCC2)n(C)c1=O` showed an activity change, positive = activation of 0.0403%.
In the case of `Cc1cc(N2CCOCC2)ccc1/C=C\[N+](=O)[O-]`, the “activity change, positive = activation” value was inactive: -21.4%.
With `Cc1ccc(C#N)c(SCC(=O)Nc2nccs2)n1` the Potency was active: 1.83 µM.
For `CC(=O)c1c(OC(=O)c2ccc(C)cc2)c2ccccc2n1C`, the “activity change, positive = activation” value was inactive: -40.5%.
`CCOC(=O)C1=NOC(Cn2cc(C(C)=O)c(=O)[nH]c2=O)C1` (configuration not stated) gave an activity change, positive = activation of 9.59%.
For `CCCOC1CCCN(C(=O)c2cc(Cl)c(Cl)cc2C(=O)O)C1` (configuration not stated), the activity change, positive = activation was 58.1%.
Compound `O=C(Nc1ccc(F)cc1)C(c1ccccc1)N1CCN(C(=O)c2ccco2)CC1` (configuration not stated) has an activity change, positive = activation of 7.05%.
With `COc1cccc(/C=N/Nc2ccc([N+](=O)[O-])cn2)c1O` the Potency was active: 2.59 µM.
In the case of `CCn1c2ccccc2c2nnc(SCCCn3c(=O)[nH]c4ccccc43)nc21`, the “activity change, positive = activation” value was inactive: -30.5%.
Work on `CCc1nn2cc(-c3ccccc3)nc2s1` yielded an activity change, positive = activation of -1.11%.
